Results taken from patent publication US20090318413A1, “BRONCHIAL SMOOTH MUSCLE REMODELING INVOLVES CALCIUM-DEPENDENT ENHANCED MITOCHONDRIAL BIOGENESIS IN ASTHMA” (UNIVERSITE VICTOR SEGALEN BORDEAUX 2, priority 2008, published 2009).
“Also recorded” adds a separate entry of the source. For at least one compound, name, drawing or mass did not settle the structure.

Tests used:
Format in all cases: cell-based, human
porin = assay: Mitochondrial mass by porin content (Western blot) in BSM cells
Experimental: To analyze the mitochondrial ultrastructure, BSM cells were growth arrested, as described in the previous section, for 6 d. Three million cells were then collected and centrifuged at 400 g for 5 min. Cell pellets were fixed in 2.5% glutaraldehyde for 2 h at 4° C. and processed for electron microscopy, as described in the previous section. Growth curves were built to assess the role of mitochondria in cell proliferation. For this purpose, 25,000 BSM cells were plated on 75-cm^2 flasks and cultured with 10% FCS-DME containing either 4.5 g/liter galactose or 4.5 g/liter glucose. […] For these latter experiments, medium was changed every 24 h, and, at the indicated time, BSM cells were harvested by trypsinization and counted in triplicate using a cytometer.
Whole lysates from BSM cells were collected using 1% Triton X-100 lysis buffer in the presence of 2 mM Na orthovanadate, 1 mM EDTA, 50 μg/ml aprotinin, 100 μM leupeptin, 1 mM 1.4 Dithio-DL-Treitol, and 1 mM amino-ethyl-benzenesulfonyl fluoride hydrochloride (all from Sigma-Aldrich). […] Blot images were acquired using BioCaptMW (Thermo Fisher Scientific), and band densities were quantified using ImageJ software.

BSM cells [1] = assay: BrdU incorporation (DNA synthesis) in BSM cells; settings: 10% FCS-DME glucose, ethidium bromide or cyclic GMP 24 h
Experimental: Growth-arrested BSM cells were cultured in 96-well plates for 24 h and stimulated with 10% FCS-DME containing glucose, galactose, ethidium bromide, or cyclic GMP for 24 h or containing D600 for 48 h, as described above. Control BSM cells remained in serum-deprived DME. DNA synthesis was measured using the BrdU kit according to the manufacturer's instructions (Roche). In brief, BSM cells were incubated with 10 μM BrdU for 2 h at 37° C. and fixed for 20 min at room temperature. Cells were denaturized for 30 min and incubated with the anti-BrdU antibody for 2 h at room temperature. Absorbance was measured at 370 nm in a microplate reader in triplicate. Results are expressed as a normalized ratio of BrdU incorporation, i.e. absorbance for test condition divided by absorbance for control serum-deprived condition.

BSM cells [2] = system: BSM cells
BSM cells [3] = assay: BSM cell growth curves (cell counting), doubling time and proliferation
Experimental: To analyze the mitochondrial ultrastructure, BSM cells were growth arrested, as described in the previous section, for 6 d. Three million cells were then collected and centrifuged at 400 g for 5 min. Cell pellets were fixed in 2.5% glutaraldehyde for 2 h at 4° C. and processed for electron microscopy, as described in the previous section. Growth curves were built to assess the role of mitochondria in cell proliferation. For this purpose, 25,000 BSM cells were plated on 75-cm^2 flasks and cultured with 10% FCS-DME containing either 4.5 g/liter galactose or 4.5 g/liter glucose. In another set of experiments, we investigated the effects of 50 μg/liter ethidium bromide (Qbiogene) for up to 33 d, 1.3 g/liter cyclic cGMP (3 mM; Sigma-Aldrich) for up to 6 d, or […] D600, i.e., methoxyverapamil or gallopamil (1 μM; Sigma-Aldrich) for up to 2 d in 10% FCS-DME containing 4.5 g/liter glucose. For these latter experiments, medium was changed every 24 h, and, at the indicated time, BSM cells were harvested by trypsinization and counted in triplicate using a cytometer.

## CC[n+]1c(-c2ccccc2)c2cc(N)ccc2c2ccc(N)cc21 [ethidium bromide]
porin
  mitochondrial content (amount of porin): significantly decreased
BSM cells [1]; COPD BSM cells
  BrdU incorporation: decreased
BSM cells [1]; asthmatic BSM cells, 1 μM D600 48 h
  BrdU incorporation: decreased
BSM cells [1]; control BSM cells
  BrdU incorporation: decreased
BSM cells [2]
  cell survival in ethidium bromide medium: all of the asthmatic BSM cells died; also recorded: still alive
BSM cells [3]
  doubling time of cell growth: significantly increased; also recorded: did not change
  proliferation of BSM cells: decreased; also recorded: remained unchanged
